Data: paper PMC3965549, “Evidence for LINC1-SUN Associations at the Plant Nuclear Periphery” (PLoS ONE, 2014)
No constants are given. Whether binding was seen depends on the method and setting. In cells and extracts the contact can be indirect. Sequences can lack the tags named with a protein. Values belong to the binder of their own block, whether it stands above or below them.

Target: T1, AtLINC1-YFP (Arabidopsis, UniProt F4HRT5 1-1132)
T1 construct: Little Nuclei 1 (LINC1) of Arabidopsis; also called Little Nuclei 1
T1 sequence (looked up): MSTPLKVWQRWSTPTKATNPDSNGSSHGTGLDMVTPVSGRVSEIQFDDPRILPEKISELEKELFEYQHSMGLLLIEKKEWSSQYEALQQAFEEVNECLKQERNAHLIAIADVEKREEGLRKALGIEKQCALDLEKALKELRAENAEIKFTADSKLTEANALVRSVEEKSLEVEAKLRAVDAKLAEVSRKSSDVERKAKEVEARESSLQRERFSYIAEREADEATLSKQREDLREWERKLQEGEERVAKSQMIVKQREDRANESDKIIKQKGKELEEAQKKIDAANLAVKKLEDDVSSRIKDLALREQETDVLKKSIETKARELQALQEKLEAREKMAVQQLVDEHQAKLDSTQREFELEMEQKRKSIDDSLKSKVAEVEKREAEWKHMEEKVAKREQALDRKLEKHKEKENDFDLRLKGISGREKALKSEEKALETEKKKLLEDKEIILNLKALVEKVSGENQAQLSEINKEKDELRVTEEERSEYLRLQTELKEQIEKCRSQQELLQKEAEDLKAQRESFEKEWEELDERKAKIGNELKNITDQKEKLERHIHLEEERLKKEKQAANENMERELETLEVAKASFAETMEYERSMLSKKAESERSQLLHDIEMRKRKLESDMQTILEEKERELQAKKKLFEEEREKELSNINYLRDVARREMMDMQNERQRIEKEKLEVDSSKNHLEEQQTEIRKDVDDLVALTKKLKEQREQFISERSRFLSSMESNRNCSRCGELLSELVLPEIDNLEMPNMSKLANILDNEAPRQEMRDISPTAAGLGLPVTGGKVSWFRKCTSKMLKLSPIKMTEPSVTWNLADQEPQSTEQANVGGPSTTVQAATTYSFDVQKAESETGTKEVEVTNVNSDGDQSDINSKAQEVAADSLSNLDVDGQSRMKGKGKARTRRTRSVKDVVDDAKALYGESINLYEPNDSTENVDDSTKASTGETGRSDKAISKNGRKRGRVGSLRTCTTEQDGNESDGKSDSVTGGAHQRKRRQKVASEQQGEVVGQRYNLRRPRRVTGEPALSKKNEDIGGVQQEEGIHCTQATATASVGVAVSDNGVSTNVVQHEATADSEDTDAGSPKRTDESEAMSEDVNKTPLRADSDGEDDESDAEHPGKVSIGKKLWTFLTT
Experiment: FRET or BRET; acceptor photobleaching FRET (apFRET) in N. benthamiana leaf cells 3 days after infiltration; CFP donor on the SUN constructs, YFP acceptor on AtLINC1; YFP bleached in a constant ROI; pre-bleach fluorescence as internal negative control; about 35 NE per sample

- binding: no binding
B1: AtSUN2ΔN-CFP (domain or fragment, UniProt Q9SG79 105-455)
chain: KTVVRVFAKQFGALLLLVGLIQLIRKLTLKDSSLSSSNFPIETEMVLSELESRISAVDGLVKTTTKMMQVQVEFLDKKMDSESRALRQTIDSTSSVLHSELKKVESKTERLQVSVDELNAKPLVSREELERVYEELKKGKVGDSDVNIDKLRAYARDIVEKEIGKHVADGLGRVDYALASGGAFVMGHSDPFLVGNGRNWFGTSRRRVHSKAVKMLTPSFGEPGQCFPLKGSNGYVLVRLRAPIIPEAVTLEHVSKAVAYDRSSAPKDCRVSGWLGDIDMETETMPLLTEFSYDLDRSNAQTFDIADSAHSGLVNTVRLDFNSNHGSSSHTCIYRFRVHGRELDSVSVAHA

- binding: no binding
B2: AtSUN1ΔN-CFP (domain or fragment, UniProt Q9FF75 107-471)
chain: VVRIFAKQLGALLIIVGLIQLTRKMILKASSPSSPISSYETEMAFSGLESRIAEVDGLVKATTNSMQVQVELLDKKMEREAKVLRQEIERKASAFQSELKKIESRTESLEKSVDEVNAKPWVTKDELERIYEELKKGNVDDSAFSEISIDELRAYARDIMEKEIEKHAADGLGRVDYALASGGAFVMEHSDPYLVGKGSSWFATTMRRAHTNAVKMLSPSFGEPGQCFPLKGSEGYVQIRLRGPIIPEAFTLEHVAKSVAYDRSSAPKDCRVSGSLQGPESSAETENMQLLTEFTYDLDRSNAQTFNILESSSSGLIDTVRLDFTSNHGSDSHTCIYRFRVHGRAPDPVPVVGTNLDQDSSPESE
